Test results as given in PMC5326618.
These are yes or no findings as the source states them, for the method shown. In cells and extracts the contact can be indirect. A result given as binding can be weak or reduced; the word gives no strength.

The chains behind the UniProt entries cited, without tags or fusion partners. Where a name states a change or a piece, a line headed by the entry shows the natural chain unless it says otherwise.
UniProt Q96PU4: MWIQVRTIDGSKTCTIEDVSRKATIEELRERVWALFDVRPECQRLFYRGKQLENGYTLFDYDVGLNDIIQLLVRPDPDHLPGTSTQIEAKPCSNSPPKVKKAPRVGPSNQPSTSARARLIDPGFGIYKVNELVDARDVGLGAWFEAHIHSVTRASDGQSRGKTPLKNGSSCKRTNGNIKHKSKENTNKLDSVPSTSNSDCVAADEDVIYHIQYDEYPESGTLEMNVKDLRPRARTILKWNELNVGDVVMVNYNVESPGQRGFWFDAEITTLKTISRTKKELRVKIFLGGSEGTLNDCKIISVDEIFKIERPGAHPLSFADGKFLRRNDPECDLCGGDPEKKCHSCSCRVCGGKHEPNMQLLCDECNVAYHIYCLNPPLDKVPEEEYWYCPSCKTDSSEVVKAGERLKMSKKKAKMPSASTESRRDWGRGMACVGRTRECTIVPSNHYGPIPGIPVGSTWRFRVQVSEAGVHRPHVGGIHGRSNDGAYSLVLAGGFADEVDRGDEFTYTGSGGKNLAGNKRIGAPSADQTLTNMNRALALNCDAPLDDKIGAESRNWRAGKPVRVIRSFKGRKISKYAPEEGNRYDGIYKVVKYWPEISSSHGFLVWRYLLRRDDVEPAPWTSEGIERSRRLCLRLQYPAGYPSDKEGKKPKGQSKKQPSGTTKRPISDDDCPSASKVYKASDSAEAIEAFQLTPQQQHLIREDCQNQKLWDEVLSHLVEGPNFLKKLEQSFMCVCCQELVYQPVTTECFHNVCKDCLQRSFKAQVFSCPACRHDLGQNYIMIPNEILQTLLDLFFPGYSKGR
UniProt Q13547: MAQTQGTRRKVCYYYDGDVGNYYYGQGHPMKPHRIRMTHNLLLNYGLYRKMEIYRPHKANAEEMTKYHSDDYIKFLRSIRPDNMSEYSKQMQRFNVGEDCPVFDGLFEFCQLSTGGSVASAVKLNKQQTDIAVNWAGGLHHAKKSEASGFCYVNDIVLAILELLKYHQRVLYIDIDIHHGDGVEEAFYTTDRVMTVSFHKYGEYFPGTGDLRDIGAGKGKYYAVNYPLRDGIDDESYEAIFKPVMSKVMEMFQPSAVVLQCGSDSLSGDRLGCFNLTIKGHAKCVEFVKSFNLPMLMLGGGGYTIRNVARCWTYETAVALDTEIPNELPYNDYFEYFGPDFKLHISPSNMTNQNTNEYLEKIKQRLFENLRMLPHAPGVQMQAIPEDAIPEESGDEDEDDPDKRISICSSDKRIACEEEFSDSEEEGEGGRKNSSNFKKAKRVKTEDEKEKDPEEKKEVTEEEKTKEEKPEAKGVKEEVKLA

Assays:
[1] = target: UHRF2 ΔRING (Flag-tagged deletion mutant lacking the RING finger domain) (UniProt Q96PU4); experiment: co-IP; HEK293 cells 48 h after transfection, NP40 lysis buffer; whole cell extracts immunoprecipitated overnight at 4°C with anti-Flag antibodies, Western blot
[2] = target: UHRF2 ΔPHD (Flag-tagged deletion mutant lacking the PHD domain) (UniProt Q96PU4); experiment: as above

binding [1]: binds
binding [2]: binds
Substance: HDAC1 (from UniProt Q13547 1-482)
